PubChem BioAssay AID2685 (National Center for Advancing Translational Sciences (NCATS), 2010)
This is one part of the list. These are further read-outs of the screen, such as a control signal, another cell line or another target. No call is given for them. The list favours compounds with an active or inconclusive main result. Potencies come from curve fits of mixed quality, noted in brackets.

Assay: qHTS Assay for Lipid Storage Modulators in Drosophila S3 Cells;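 on cell number change: cells counted by Cell Tracker Red CMTPX staining in the red channel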
Settings: BODIPY lipid droplet fluorescence, 18-24 h; for cell number change: measured here: cell count max response, cells fed with added oleic acid
Method in brief: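 Laser-scanning cytometry quantifies lipid droplet accumulation (500–530 nm total intensity; droplet/cell object ratio) in oleic acid-fed (400 uM added) Drosophila S3 cells treated with a concentration series. 20 uM Triacsin C defined 100% inhibition.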

[1] = measured here: cell number channel AC50, cells fed with added oleic acid
[2] = measured here: lipid fluorescence (Fed channel) AC50, cells fed with added oleic acid

| SMILES | AC50 [1] | AC50 [2] | cell number change [%] |
| --- | --- | --- | --- |
| COc1ccc(-c2cc(C(=O)NNC3=NCCC3)c3c(C)nn(-c4ccccc4)c3n2)cc1 | 0.13 µM [rising, full curve, poor fit] | 0.164 µM [rising, full curve, poor fit] |  |
| CCCOc1ccc(N2C(=O)CC(SC(=NCC)Nc3cccc(F)c3)C2=O)cc1 (configuration not stated) | 16.4 µM [falling, single point] | 9.2 µM [falling, partial curve] | -30.8 |
| CS(=O)(=O)c1nc(-c2ccc(F)cc2)cc(C(F)(F)F)n1 |  | 1.3 µM [falling, full curve] | -20.4 |
| N#CC(c1ccc(O)cc1)c1ncc(C(F)(F)F)cc1Cl (configuration not stated) |  |  | -35.2 |
| CC(Sc1nc(N2CCOCC2)c2c(c1C#N)CC(C)(C)OC2)C(=O)Nc1ccccc1 (configuration not stated) | 8.2 µM [falling, partial curve] | 7.31 µM [falling, partial curve] | -61.6 |
| CCOc1ccc(N=c2cc(-c3ccc(OC)cc3)oc3ccccc23)cc1 | 20.6 µM [falling, single point] |  | -63.9 |
| O=c1c2ccccc2nnn1COc1ccc(Cl)cc1Br | 32.6 µM [rising, single point] | 29.1 µM [rising, single point] | 50.4 |
| O=C(CC1CCCC1)NNC(=O)c1ccc(Br)cc1 |  | 0.103 µM [rising, full curve, poor fit] | -1.5 |
| COC(=O)c1ccc(OC(=O)c2nn(C)cc2Cl)c(OC)c1 |  |  | -3.46 |
| COc1cc(Br)c(C2CC(=O)Nc3cc(OC)c(OC)cc32)cc1OC (configuration not stated) |  |  | -25.4 |
| CCOCCc1nn2c(=O)cc(CSCC(=O)Nc3cc(C)cc(C)c3)nc2s1 |  | 29.1 µM [rising, single point] | 12.5 |
| Cc1cc(N2C(=O)NC(=O)CC2C)c(C)cc1C(C)C (configuration not stated) | 0.103 µM [falling, partial curve, poor fit] | 29.1 µM [falling, single point] | -36.9 |
| CC(=O)Nc1ccc(S(=O)(=O)NCc2csc(-c3cccnc3)n2)cc1 | 8.2 µM [rising, partial curve] | 7.31 µM [rising, partial curve] | 141 |
| COc1ccccc1-c1ccc(=O)n(CC(=O)NC2CCc3ccccc32)n1 (configuration not stated) | 8.2 µM [falling, partial curve] | 10.3 µM [falling, partial curve] | -65.2 |
| O=C(Nc1nnc(-c2ccc(Cl)cc2)o1)Nc1ccccc1Cl |  |  | 2.78 |
| CNC(=O)c1sc(-c2ccc(Cl)cc2)nc1C |  | 16.4 µM [rising, single point] | 1.08 |
| COc1ccc(Nc2ncnc3scc(-c4ccc(OC)cc4)c23)cc1 |  | 29.1 µM [falling, single point] | -8.95 |
| O=C(CN(Cc1ccc(F)cc1)C(=O)CCC(=O)Nc1ccccn1)NCc1ccco1 |  |  | -18.1 |
| Cc1cc(C)c2[nH]c(=O)c(CN(Cc3ccco3)C(=O)C3CCCO3)cc2c1 (configuration not stated) | 20.6 µM [falling, partial curve, poor fit] | 1.64 µM [rising, full curve, poor fit] | -33.6 |
| CCOc1ccc(C(=O)OCC(=O)Nc2ccc3c(c2)OCCO3)cc1OC | 2.06 µM [rising, partial curve] | 4.11 µM [rising, full curve, poor fit] | 15 |

Quoted from the entries so far, eleven compounds:

| SMILES | AC50 [1] | AC50 [2] | cell number change [%] |
| --- | --- | --- | --- |
| CS(=O)(=O)c1nc(-c2ccc(F)cc2)cc(C(F)(F)F)n1 |  | 1.3 µM [falling, full curve] | -20.4 |
| N#CC(c1ccc(O)cc1)c1ncc(C(F)(F)F)cc1Cl (configuration not stated) |  |  | -35.2 |
| CC(Sc1nc(N2CCOCC2)c2c(c1C#N)CC(C)(C)OC2)C(=O)Nc1ccccc1 (configuration not stated) | 8.2 µM [falling, partial curve] | 7.31 µM [falling, partial curve] | -61.6 |
| CCOc1ccc(N=c2cc(-c3ccc(OC)cc3)oc3ccccc23)cc1 | 20.6 µM [falling, single point] |  | -63.9 |
| O=c1c2ccccc2nnn1COc1ccc(Cl)cc1Br | 32.6 µM [rising, single point] | 29.1 µM [rising, single point] | 50.4 |
| O=C(CC1CCCC1)NNC(=O)c1ccc(Br)cc1 |  | 0.103 µM [rising, full curve, poor fit] | -1.5 |
| COC(=O)c1ccc(OC(=O)c2nn(C)cc2Cl)c(OC)c1 |  |  | -3.46 |
| COc1cc(Br)c(C2CC(=O)Nc3cc(OC)c(OC)cc32)cc1OC (configuration not stated) |  |  | -25.4 |
| CCOCCc1nn2c(=O)cc(CSCC(=O)Nc3cc(C)cc(C)c3)nc2s1 |  | 29.1 µM [rising, single point] | 12.5 |
| Cc1cc(N2C(=O)NC(=O)CC2C)c(C)cc1C(C)C (configuration not stated) | 0.103 µM [falling, partial curve, poor fit] | 29.1 µM [falling, single point] | -36.9 |
| CC(=O)Nc1ccc(S(=O)(=O)NCc2csc(-c3cccnc3)n2)cc1 | 8.2 µM [rising, partial curve] | 7.31 µM [rising, partial curve] | 141 |

The list continues.

| SMILES | AC50 [1] | AC50 [2] | cell number change [%] |
| --- | --- | --- | --- |
| COc1ccc(-n2ccc3ccccc32)cc1 | 0.259 µM [rising, partial curve, poor fit] |  | 45 |
| COc1ccccc1NS(=O)(=O)c1cc(C(=O)NCc2ccncc2)ccc1C | 29.1 µM [rising, single point] | 0.58 µM [rising, single point] | 33.7 |
| CCOC(=O)C1=C(N)Oc2cc(O)ccc2C1c1cccc(Cl)c1 (configuration not stated) | 23.1 µM [falling, single point] |  | -37.8 |
| CCOc1ccc(NC(=S)Nc2ccc3nsnc3c2)cc1 |  | 8.2 µM [falling, partial curve] | -15.9 |
| N#Cc1ccccc1OCC(=O)OCC(=O)NC1CCCCCC1 |  | 29.1 µM [falling, single point] | -4.45 |
| Clc1cccc(Sc2ccc(-c3ccccn3)s2)c1 | 23.1 µM [falling, single point] |  | -45.7 |
| Cc1nc2ccc(NC(=O)c3ccc(F)c(S(=O)(=O)N4CCOCC4)c3)cc2s1 |  |  | -15.9 |
| O=C(Nc1ccc(-c2nc3ccccc3s2)c(O)c1)C1=COCCO1 |  |  | 6.55 |
| CC(C)CNC(=S)N1CCC(Cc2ccccc2)CC1 | 16.4 µM [rising, partial curve, poor fit] | 1.84 µM [rising, partial curve] | 49.4 |
| CCOC(=O)c1c(C)n(C)c2ccc(OC)c([N+](=O)[O-])c12 |  | 23.1 µM [rising, partial curve] | 9.73 |
| CCOC(=O)C(NC(=O)NCc1ccccc1)(OCC)C(F)(F)F (configuration not stated) | 3.26 µM [rising, single point] |  | 3.2 |
| O=C1CSc2ccc(S(=O)(=O)NCc3ccccc3Cl)cc2N1 | 29.1 µM [falling, single point] | 29.1 µM [rising, single point] | -31.2 |
| Cc1cc(-c2ccc(C)c(S(=O)(=O)NC(C)Cc3ccco3)c2)on1 (configuration not stated) |  |  | -16.3 |
| CC(C)N1CCc2c(sc(NC(=O)c3ccc([N+](=O)[O-])o3)c2C(N)=O)C1 |  | 14.6 µM [falling, partial curve, poor fit] | -21.8 |
| Cc1ccc(S(=O)(=O)Oc2cccc(/C=N/n3cnnc3)c2)cc1 |  | 9.2 µM [rising, partial curve] | -2.85 |
| CCCCCC(=O)Nc1c(-c2cccs2)c(=O)c2ccccc2n1C |  |  | -18 |
| CCN(CC)S(=O)(=O)c1cccc(NC(=O)C(=O)c2c(-c3ccccc3)cc3ccccn23)c1 | 5.8 µM [rising, full curve] | 16.4 µM [rising, partial curve] | 50.7 |
| CC(C)(OC1OC(CO)C(O)C(O)C1O)[C@H]1Oc2ccc3ccc(=O)oc3c2[C@H]1O (some centres not stated) |  | 0.0259 µM [falling, full curve, poor fit] | -12.8 |
| O=C(Nc1cccc(O)c1)c1ccc(Br)cc1 |  | 29.1 µM [falling, single point] | -14.4 |
| O=C1c2ccccc2C(=O)N1Cc1cc(Cl)c(O)c([N+](=O)[O-])c1 |  | 16.4 µM [rising, single point] | 2.84 |

| SMILES | AC50 [1] | AC50 [2] | cell number change [%] |
| --- | --- | --- | --- |
| CC1(C)CC2CC(C)(CN2C(=S)Nc2ccccc2F)C1 (configuration not stated) | 0.00461 µM [rising, full curve, poor fit] |  |  |
| O=C(c1ccc(CS(=O)c2ccccc2Cl)o1)N1CCN(c2ccccc2)CC1 (configuration not stated) |  | 29.1 µM [falling, single point] | -21.8 |
| COc1ccccc1NC(=O)c1ccc(S(=O)(=O)NCc2ccco2)cc1 |  |  | 16.7 |
| CC(=O)Nc1ccc(SCCC2CCCCN2C)cc1 (configuration not stated) |  | 0.58 µM [falling, single point] |  |
| COc1cc(CCC(=O)Nc2c(C(=O)N3CCN(c4ccccc4)CC3)oc3ccccc23)on1 |  | 0.411 µM [rising, partial curve, poor fit] | 19.3 |
| COc1ccc(S(=O)(=O)Nc2cc3c4c(c2)CC(=O)N4CCC3)cc1C | 14.6 µM [rising, partial curve, poor fit] |  | 49.2 |
| O=C1CC(C(=O)N2CCc3ccccc32)CN1c1ccccc1 (configuration not stated) |  |  | -16.7 |
| O=C(CSc1nnc(COc2ccc3c(c2)CCCC3)o1)Nc1ccc(F)cc1 |  |  | -23 |
| O=c1[nH]cnc2c1C(c1ccccc1[N+](=O)[O-])c1c(nc[nH]c1=O)O2 |  |  | 7.39 |
| CC(C)c1cc(C(=O)O)on1 |  | 4.61 µM [falling, single point] | -17 |
| Cc1ccc(Cl)cc1N(CC(=O)Nc1cccc(N(C)S(C)(=O)=O)c1)S(C)(=O)=O |  | 20.6 µM [falling, partial curve] |  |
| O=C(N/N=C/c1cc2ccccc2nc1Cl)/C(=C/c1cccs1)NC(=O)c1ccccc1 | 1.16 µM [rising, partial curve] |  | -14.4 |
| CC(=O)N=c1sccn1CC(O)c1ccc(Br)cc1 (configuration not stated) |  | 0.731 µM [rising, full curve, poor fit] |  |
| CCC(=O)N1CCc2cc(S(=O)(=O)NCCC(=O)N3CCc4ccccc4C3)ccc21 |  | 0.00517 µM [falling, full curve, poor fit] | -23.2 |
| CCS(=O)(=O)N1Cc2ccccc2CC1C(=O)Nc1ccc(OC)cc1OC (configuration not stated) |  | 29.1 µM [falling, single point] | -27 |
| C=C(C)COc1ccc(-c2[nH]ncc2-c2ccccc2OC)c(O)c1 | 13 µM [falling, partial curve, poor fit] | 7.31 µM [falling, partial curve] | -57.2 |
| Cc1ccc(C)c2[nH]c(=O)c(CN(Cc3ccco3)S(=O)(=O)c3ccc4c(c3)OCCO4)cc12 |  | 0.461 µM [rising, full curve] | 1.92 |
| CCc1ccc(N(C(=O)CCC(=O)Nc2cc(C)on2)C(C(=O)NC(C)(C)C)c2ccc(OC)cc2)cc1 (configuration not stated) |  | 29.1 µM [rising, single point] | 10.8 |
| CCC(CC)NC(=O)COC(=O)c1cc(Br)ccc1Cl | 0.651 µM [falling, full curve, poor fit] |  | -0.176 |
| CN(c1cccc(NC(=O)c2ccc(CN3CCc4ccccc4C3)cc2)c1)S(C)(=O)=O | 14.6 µM [falling, partial curve] | 29.1 µM [falling, single point] | -38.6 |
